Laboratory results taken from article PMC8838411, “Disrupting the MAD2L2-Rev1 Complex Enhances Cell Death upon DNA Damage” (Molecules, 2022).
No constants are given. Whether binding was seen depends on the method and setting. Binding seen in cells or lysates may run through a third protein. Some entries that bind do so weakly or less than the wild type. Where a sequence is shown, tags or fusion partners need not be part of it.

Sequences of proteins named here, by UniProt entry; tags and fusion partners are left off.
UniProt Q9UI95: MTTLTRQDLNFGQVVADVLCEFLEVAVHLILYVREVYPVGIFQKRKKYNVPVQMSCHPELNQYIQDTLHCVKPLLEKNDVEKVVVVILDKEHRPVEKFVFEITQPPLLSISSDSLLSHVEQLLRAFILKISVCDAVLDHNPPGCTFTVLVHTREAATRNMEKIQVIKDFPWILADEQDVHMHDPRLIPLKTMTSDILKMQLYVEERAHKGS

Biological target: T1, YFP-Rev1 (UniProt Q9UBZ9)
T1 sequence: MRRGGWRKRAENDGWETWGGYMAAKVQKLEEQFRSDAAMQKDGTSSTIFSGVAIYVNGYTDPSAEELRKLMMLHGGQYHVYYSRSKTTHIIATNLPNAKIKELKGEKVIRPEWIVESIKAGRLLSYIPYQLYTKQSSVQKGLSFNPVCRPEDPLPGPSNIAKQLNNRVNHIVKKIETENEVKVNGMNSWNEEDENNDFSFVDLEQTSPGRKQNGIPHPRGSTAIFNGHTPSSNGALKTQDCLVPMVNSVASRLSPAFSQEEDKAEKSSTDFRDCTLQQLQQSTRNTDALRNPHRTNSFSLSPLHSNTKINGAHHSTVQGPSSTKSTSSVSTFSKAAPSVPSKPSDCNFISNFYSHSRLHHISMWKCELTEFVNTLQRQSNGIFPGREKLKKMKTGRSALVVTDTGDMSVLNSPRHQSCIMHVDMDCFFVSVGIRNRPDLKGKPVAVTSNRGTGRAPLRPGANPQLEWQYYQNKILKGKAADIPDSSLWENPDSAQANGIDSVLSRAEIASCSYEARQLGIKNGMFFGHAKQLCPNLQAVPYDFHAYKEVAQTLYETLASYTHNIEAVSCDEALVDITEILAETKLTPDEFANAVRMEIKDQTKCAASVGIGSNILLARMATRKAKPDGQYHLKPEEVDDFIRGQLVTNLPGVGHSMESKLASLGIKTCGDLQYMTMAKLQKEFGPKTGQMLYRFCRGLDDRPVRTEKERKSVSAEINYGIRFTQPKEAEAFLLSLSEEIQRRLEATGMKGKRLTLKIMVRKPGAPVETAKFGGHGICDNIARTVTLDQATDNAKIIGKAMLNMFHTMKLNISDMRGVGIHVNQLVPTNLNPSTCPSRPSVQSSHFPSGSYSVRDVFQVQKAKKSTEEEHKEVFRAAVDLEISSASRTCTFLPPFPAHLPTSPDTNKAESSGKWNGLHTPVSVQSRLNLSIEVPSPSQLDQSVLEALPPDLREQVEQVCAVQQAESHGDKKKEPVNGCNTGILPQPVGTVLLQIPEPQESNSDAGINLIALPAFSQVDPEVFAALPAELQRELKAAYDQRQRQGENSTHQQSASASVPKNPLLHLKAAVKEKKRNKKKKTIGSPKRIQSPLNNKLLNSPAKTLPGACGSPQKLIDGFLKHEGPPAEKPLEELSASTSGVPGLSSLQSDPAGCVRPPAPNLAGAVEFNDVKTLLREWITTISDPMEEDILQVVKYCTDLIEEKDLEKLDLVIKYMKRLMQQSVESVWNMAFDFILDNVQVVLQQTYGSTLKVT
Test: co-IP; HEK293 cells co-transfected with YFP-Rev1 and myc-MAD2L2; treated with DMSO, c#2 or c#3 (50 uM) for 24 h before harvest; lysates in 50 mM Tris pH 8, 150 mM NaCl, 20 mM EDTA, 50 mM NaF, 1% TritonX; GFP-Trap agarose beads 1-2 h at 4 °C; blot for myc and GFP

Substance: myc-MAD2L2 (from UniProt Q9UI95 1-211)
- binding: binds
